PubChem BioAssay AID1259254 – NCATS – 2017

Assay: 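Gene knock-downs that lead to re-replication, shown by excess G2 DNA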 (primary screen)
System: human HCT116 colorectal cancer cells
Knock-down reagent: single siRNA against human genes
Duration: 3 days
Measurement: 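Imaged Hoechst DNA stain sorts each cell into a cycle phase by DNA amount; per plate, G2 fraction set to 0% for non-targeting and 100% for GMNN siRNA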
Scale: G2 robust z-score and G2 cells, % of GMNN control: higher = more G2 cells, more excess DNA replication; raw share of cells in G2: higher = larger share of cells with G2 DNA content
Rule for the call: 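Active siRNAs have a G2 robust z of 5 or more median absolute deviations over the median, which in these data means about 38% or higher of GMNN control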
Here is an unselected part of about 59,000 reagents tested. Of all reagents, about 1,550 (2.6%) got an active call. 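G2 share is only a proxy for re-replication; each gene was hit by three separate siRNAs, and active genes were retested.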 Raw values are not corrected between plates. The numbers tell different reagents against one gene apart. No sequences are given here. Not given: the amount of reagent.

gene | reagent no. | G2 robust z-score | G2 cells, % of GMNN control | raw share of cells in G2 (%) | Call
TMPRSS11D (GeneID 9407) | 1 | 0.207 | 4.43 | 7.1 | inactive
TMPRSS11D (GeneID 9407) | 2 | 1.8 | 15.7 | 10.5 | inactive
TMPRSS11D (GeneID 9407) | 3 | -0.0536 | 2.59 | 4.88 | inactive
PLEKHM2 (GeneID 23207) | 1 | 0.757 | 8.29 | 9.7 | inactive
PLEKHM2 (GeneID 23207) | 2 | -0.868 | -3.14 | 3.11 | inactive
PLEKHM2 (GeneID 23207) | 3 | 2.52 | 20.7 | 11 | inactive
SKA1 (GeneID 220134) | 1 | 1.45 | 13.2 | 7.4 | inactive
SKA1 (GeneID 220134) | 2 | 3.62 | 28.4 | 13.9 | inactive
SKA1 (GeneID 220134) | 3 | 0.0626 | 3.41 | 4.3 | inactive
ZNF503 (GeneID 84858) | 1 | 0.636 | 7.44 | 7.24 | inactive
ZNF503 (GeneID 84858) | 2 | -0.623 | -1.42 | 2.56 | inactive
ZNF503 (GeneID 84858) | 3 | 0.0814 | 3.54 | 4.05 | inactive
MFSD2A (GeneID 84879) | 1 | 1.37 | 12.6 | 9.25 | inactive
MFSD2A (GeneID 84879) | 2 | 0.176 | 4.2 | 6.77 | inactive
MFSD2A (GeneID 84879) | 3 | 1.91 | 16.4 | 13.3 | inactive
CEP41 (GeneID 95681) | 1 | -0.0147 | 2.86 | 7 | inactive
CEP41 (GeneID 95681) | 2 | -0.363 | 0.413 | 5.14 | inactive
CEP41 (GeneID 95681) | 3 | 0.98 | 9.86 | 8.21 | inactive
MBOAT2 (GeneID 129642) | 1 | 0.302 | 5.09 | 8.03 | inactive
MBOAT2 (GeneID 129642) | 2 | -0.77 | -2.45 | 3.91 | inactive
MBOAT2 (GeneID 129642) | 3 | 1.12 | 10.8 | 8.58 | inactive
PAN3 (GeneID 255967) | 1 | 0.527 | 6.68 | 7.15 | inactive
PAN3 (GeneID 255967) | 2 | 1.84 | 15.9 | 11.4 | inactive
PAN3 (GeneID 255967) | 3 | -0.0576 | 2.56 | 7.18 | inactive
CACNA1A (GeneID 773) | 1 | -0.847 | -2.99 | 4.2 | inactive
CACNA1A (GeneID 773) | 2 | -0.26 | 1.14 | 5.17 | inactive
CACNA1A (GeneID 773) | 3 | 0.969 | 9.79 | 8.2 | inactive
SNX19 (GeneID 399979) | 1 | -0.364 | 0.409 | 4.43 | inactive
SNX19 (GeneID 399979) | 2 | -0.707 | -2 | 5.04 | inactive
SNX19 (GeneID 399979) | 3 | -0.127 | 2.07 | 5.77 | inactive

5 entries from above, showing only “raw share of cells in G2 (%)”.
ZNF503 (GeneID 84858) #3: 4.05
MFSD2A (GeneID 84879) #1: 9.25
MFSD2A (GeneID 84879) #2: 6.77
MFSD2A (GeneID 84879) #3: 13.3
CEP41 (GeneID 95681) #1: 7
